Source: US20060135434 (published 2006)

Legend:
[1] = general procedure: Fmoc solid-phase peptide synthesis; Rink Amide AM resin (0.64 or 0.74 mmol/g; NovaBiochem); HBTU/HOBt/DIEA; details: whole synthesis, λ=215 nm, scale of the general procedure 0.25 mmol
[2] = general procedure: Fmoc solid-phase peptide synthesis; Rink Amide AM; HBTU/HOBt/DIEA; details: whole synthesis, scale 0.125 mmol

With “cyclo-[CH2CO-Lys-Arg-Gly-Val-Ile-Asp-Pro-Met-Arg-Cys]-Gly-Glu-Glu-Glu-Cys-NH2” the “final HPLC purity” value [1] was 99%.

With “cyclo-[CH2CO-Arg-Val-Lys-Ile-Asp-Gly-Arg-Pro-Met-Cys]-Gly-Glu-Glu-Glu-Cys-NH2” the isolated mass [2] was 81 mg and the “final HPLC purity” value [1] was 95%.

For “Ala-Glu-Gly-Glu-Phe-(cyclo-[Dpr-N^β(CH2CO)-Arg-Val-Lys-Ile-Asp-Gly-Arg-Pro-Met-Cys])-Gly-Glu-Glu-Glu-Cys-NH2”, the “final HPLC purity” value [1] was 90%.
